These are yes or no findings as the source states them, for the method shown. Some entries that bind do so weakly or less than the wild type.
Biological target: human RHOG (residues 1-179) (human) (UniProt P84095)
Experiment: NMR titration; ELMO2 (WT or L43A) titrated into 15N-labeled GMPPNP-loaded RHOG; 1H/15N HSQC, 600 MHz, 25 °C; 20 mM Tris pH 7.5, 100 mM NaCl, 5 mM MgCl2, 1 mM DTT, 10% D2O; both purified

Protein sequences, listed by entry. Tags and fused reporters are not part of them. Residues count along the entry.
UniProt P84095, residues 1-179: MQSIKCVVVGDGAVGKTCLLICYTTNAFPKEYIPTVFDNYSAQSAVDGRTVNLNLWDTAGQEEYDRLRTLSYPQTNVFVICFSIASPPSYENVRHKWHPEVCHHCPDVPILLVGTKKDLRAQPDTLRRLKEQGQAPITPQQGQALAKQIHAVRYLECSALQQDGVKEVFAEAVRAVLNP

binding: binds
B1: murine ELMO2 full-length, wild type (protein, UniProt Q8BHL5 1-732)
chain: MPPPSDIVKVAIEWPGANAQLLEIDQKRPLASIIKEVCDGWSLPNPEYYTLRYADGPQLYVTEQTRNDIKNGTILQLAVSPSRAARQLMERTQSSSMETRLDAMKELAKLSADVTFATEFINMDGIIVLTRLVESGTKLLSHYSEMLAFTLTAFLELMDHGIVSWDMVSVTFIKQIAGYVSQPMVDVSILQRSLAILESMVLNSQSLYQKIAEEITVGQLISHLQVSNQEIQTYAIALINALFLKAPEDKRQDKHLNPLDLPVTDMANAFAQKHLRSIILNHVIRGNRPIKTEMAHQLYVLQVLTFNLLEERMMTKMDPNDQAQRDIIFELRRIAFDAESDPSNVPGSGTEKRKAMYTKDYKMLGFTNHINPALDFTQTPPGMLALDNMLYLAKVHQDTYIRIVLENSSREDKHECPFGRSAIELTKMLCEILQVGELPNEGRNDYHPMFFTHDRAFEELFGICIQLLNKTWKEMRATAEDFNKVMQVVREQITRALPSKPNSLDQFKSKLRSLSYSEILRLRQSERMSQDDFQSPPIVELREKIQPEILELIKQQRLNRLCEGSSFRKIGNRRRQERFWHCRLALNHKVLHYGDLDDNPQGEVTFESLQEKIPVADIKAIVTGKDCPHMKEKSALKQNKEVLELAFSILYDPDETLNFIAPNKYEYCIWIDGLSALLGKDMSSELTKSDLDTLLSMEMKLRLLDLENIQIPEAPPPVPKEPSSYDFVYHYG
